Literature values as cited in US6416949B1, “Method of synthesizing diverse collections of oligomers” (Affymax, Inc., priority 1991, dated 2002).
Some results were stated once for a whole list of compounds, not compound by compound.

Biological target: Monoclonal antibody 3E7
Conditions: solution assay, MAb 3E7; read-out: equilibrium binding constant (Kd); cited from earlier work

Row | Substance | Kd
1 | pentapeptide L-Pro-Gly-Gly-L-Phe-L-Leu (PGGFL) | > 1000 µM
2 | pentapeptide L-Pro-L-Pro-Gly-L-Phe-L-Leu (PPGFL) | > 1000 µM
3 | pentapeptide L-Tyr-L-Pro-Gly-L-Phe-L-Leu (YPGFL) | > 1000 µM
